Measurements: US20050202008A1 (Genentech, published 2005)
Results are given in words; binding and its absence hold for the method and conditions named. Binding seen in cells or lysates may run through a third protein. Some entries that bind do so weakly or less than the wild type. Tags and fused reporters may be left off the sequences shown.

Columns and labels:
[1] = target: soluble PRO175 polypeptide (PRO175 ECD, E. coli, Met-Gly-His10-enterokinase-site tagged) (human); experiment: co-precipitation assay, autoradiograph (legend of FIG. 10)
[2] = target: soluble PRO175 polypeptide (PRO175 ECD, E. coli, Met-Gly-His10-enterokinase-site tagged) (human); experiment: summary of the co-precipitation and FACS assays of Example 6
[3] = target: soluble PRO175 polypeptide (PRO175 ECD, E. coli, Met-Gly-His10-enterokinase-site tagged) (human); experiment: co-precipitation of 125I-PRO175 with immunoadhesin and protein A-sepharose, SDS-PAGE, autoradiography

Measured: binding

B1: PRO364-IgG (soluble immunoglobulin fusion protein of the PRO364 extracellular domain) (Fc fusion)
chain: QRPTGGPGCGPGRLLLGTGTDARCCRVHTTRCCRDYPGEECCSEWDCMCVQPEFHCGDPCCTTCRHHPCPPGQGVQSQGKFSFGFQCIDCASGTFSGGHEGHCKPWTDCTQFGFLTVFPGNKTHNAVCVPGSPPAE
notes: Expressed in insect cells with Baculovirus; also called PRO364 immunoadhesin; PRO364 ECD C-terminus IgG-Fc tagged form; not shown: IgG-Fc at the C-terminus
binds: all assays above
